Data: patent publication US20230048633A1
These are yes or no findings as the source states them, for the method shown. Some entries that bind do so weakly or less than the wild type. Where a sequence is shown, tags or fusion partners need not be part of it.

Sequences of proteins named here, by UniProt entry; tags and fusion partners are left off. Residues count along the entry.
UniProt P04202, residues 279-390: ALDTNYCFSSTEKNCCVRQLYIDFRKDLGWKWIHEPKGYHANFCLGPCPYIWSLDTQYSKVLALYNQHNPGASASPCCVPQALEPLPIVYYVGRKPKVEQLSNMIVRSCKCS

Columns and labels:
[1] = biological target: recombinant mouse TGFβ1 protein (mouse) (UniProt P04202); experiment: ELISA: plate coated with mTGFB1 (0.5 ug/ml, R&D 7666-MB), titrated protein captured, detected with α-mFc-HRP (1:10k, Jax 115-036-003)
[2] = biological target: recombinant mouse TGFβ1 protein (mouse) (UniProt P04202); experiment: ELISA, recombinant TGFβ1 coated, detection with anti mFc-HRP
[3] = biological target: TGFβ1 secreted by the tumor cell line EO771 (mouse) (UniProt P04202); experiment: sequestration assay: EO771 cells treated 8 hours with 0.3, 1 and 3 µg/ml, free TGFβ1 in supernatant by ELISA
[4] = biological target: recombinant mouse TGFβ1 protein (mouse) (UniProt P04202); experiment: Octet (TGFb-ARG2): TGFb (Biolegend 763104) coupled to ARG2 tips, 100nM (2.5 ug/ml) TGFb concentration shown; chimeric proteins at 5 ug/ml according to paragraph 289
[5] = biological target: recombinant mouse TGFβ1 protein (mouse) (UniProt P04202); experiment: BLI (Octet), mouse TGFβ1 linked to amine-reactive tips, chimeric proteins at 5 µg/ml
[6] = biological target: recombinant mouse TGFβ1 protein (mouse) (UniProt P04202); experiment: ELISA, TGFβ1 coated, detection with anti mFc-HRP

binding [1]: binds
binding [2]: binds
binding [3]: binds
binding [4]: binds
binding [5]: binds
binding [6]: binds
B1: mTGFBR2-Fc-CD30L chimeric protein (Fc fusion, mouse, not shown: a dimerising Fc or GST)
chain (part 1 of 2): IPPHVPKSVNSDVMASDNGGAVKLPQLCKFCDVRLSTCDNQKSCMSNCSITAICEKPHEVCVAVWRKNDKNITLETVCHDPKLTYHGFTLEDAASPKCVMKEKKRAGETFFMCACNMEECNDYIIFSEEYTTSSPDLLLVIIQ
chain (part 2 of 2): QKKDSTPNTTEKAPLKGGNCSEDLFCTLKSTPSKKSWAYLQVSKHLNNTKLSWNEDGTIHGLIYQDGNLIVQFPGLYFIVCQLQFLVQCSNHSVDLTLQLLINSKIKKQTLVTVCESGVQSKNIYQNLSQFLLHYLQVNSTISVRVDNFQYVDTNTFPLDNVLSVFLYSSSD
